In article PMC5377454:
These are yes or no findings as the source states them, for the method shown. Binding seen in cells or lysates may run through a third protein. Some entries that bind do so weakly or less than the wild type.

Chains of the proteins cited; added tags and fusions are not shown. Residues count along the entry.
UniProt Q08345, residues 19-913: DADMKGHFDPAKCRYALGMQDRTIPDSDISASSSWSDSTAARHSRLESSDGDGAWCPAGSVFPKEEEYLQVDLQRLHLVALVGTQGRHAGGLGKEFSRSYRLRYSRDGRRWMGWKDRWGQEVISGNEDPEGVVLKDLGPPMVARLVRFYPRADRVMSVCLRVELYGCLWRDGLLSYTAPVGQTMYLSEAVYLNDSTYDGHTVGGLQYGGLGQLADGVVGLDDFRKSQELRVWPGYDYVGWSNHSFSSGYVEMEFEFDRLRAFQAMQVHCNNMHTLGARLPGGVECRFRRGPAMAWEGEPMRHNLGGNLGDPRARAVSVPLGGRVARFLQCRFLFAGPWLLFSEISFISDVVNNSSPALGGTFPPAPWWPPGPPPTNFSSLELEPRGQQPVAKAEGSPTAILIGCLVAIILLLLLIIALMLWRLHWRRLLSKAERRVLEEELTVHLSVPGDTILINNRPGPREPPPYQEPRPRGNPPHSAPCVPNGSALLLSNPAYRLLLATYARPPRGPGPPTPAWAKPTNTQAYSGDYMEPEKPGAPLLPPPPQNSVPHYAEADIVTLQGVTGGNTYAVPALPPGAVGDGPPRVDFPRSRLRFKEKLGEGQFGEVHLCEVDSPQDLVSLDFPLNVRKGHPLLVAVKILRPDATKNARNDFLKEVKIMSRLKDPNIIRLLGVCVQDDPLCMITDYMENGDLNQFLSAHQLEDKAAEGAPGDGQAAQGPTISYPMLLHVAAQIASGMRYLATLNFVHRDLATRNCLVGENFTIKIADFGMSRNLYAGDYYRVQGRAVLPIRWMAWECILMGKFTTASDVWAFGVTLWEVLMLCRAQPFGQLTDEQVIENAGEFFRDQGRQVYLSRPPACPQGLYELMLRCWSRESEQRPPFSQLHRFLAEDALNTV

Target: T1, Transmembrane 4 L six family member 1 (TM4SF1) (human (endogenous in PANC-1 and AsPC-1)) (UniProt P30408)
T1 sequence: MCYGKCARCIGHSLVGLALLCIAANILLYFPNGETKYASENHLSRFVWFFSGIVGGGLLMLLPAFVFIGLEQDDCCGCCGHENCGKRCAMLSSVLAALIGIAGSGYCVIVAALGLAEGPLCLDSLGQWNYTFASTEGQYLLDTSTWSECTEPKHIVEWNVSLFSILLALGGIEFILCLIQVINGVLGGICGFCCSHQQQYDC
Assay: co-IP; PANC-1 and AsPC-1 cells lysed in IP lysis buffer; lysates incubated with antibodies overnight at 4 C; Protein A/G PLUS Agarose beads 10 h at 4 C; washed three times with lysis buffer; western blot

binding: binds
Substance: Discoidin Domain Receptor 1 (DDR1) (from UniProt Q08345 19-913)
